Some results were stated once for a whole list of compounds, not compound by compound.
Assays:
[1] = tested on: hTel22mer (hTel-22) quadruplex forming human telomere sequence; test: G-quadruplex capture bead assay (biotinylated ligand, streptavidin magnetic beads, A260 of supernatant); type: binding; conditions: 22mer human telomere sequence; micromolar DNA, 1 hour incubation with biotinated ligand (FIG. 10)
[2] = tested on: hTel24mer (hTel-24) quadruplex forming human telomere sequence; test: as above; type: binding; conditions: 24mer human telomere sequence; micromolar DNA, 1 hour incubation with biotinated ligand (FIG. 10)

NCCOc1cc(C(=O)Nc2cc(OCCN)c3ccccc3n2)nc(C(=O)Nc2cc(OCCN)c3ccccc3n2)c1 [compound 2, pyridostatin]
capture efficiency [1]: at least 50% | capture efficiency [2]: at least 50%

Reference: US20150031554A1, “EXTRACELLULAR TELOMERE ASSAY” (The UAB Research Foundation, priority 2012, published 2015)
